Reference: patent publication US7271239B2, “D-isomers of antimicrobial peptide” (The Research Foundation of State University of New York, priority 2004, dated 2007)
Converted amounts (≈) assume the structure as drawn. Part of at least one peptide drawing is inferred or uncertain, most often the ends. Where a SMILES comes first, the peptide text is derived from it. [ ]: non-standard residue; d: D form.

Assays:
S. mutans GS-5 = assay: Time-kill assay; format: cell-based, Streptococcus mutans; settings: after 4 h incubation, each agent at its MIC
Protocol: FIG. 10. Time-Killing curves for S. mutans. […] Control (▪), MUC7 12-mer-L (Δ), MUC7 12-mer-D (□), MUC7 20-mer (▴), Hsn5 12-mer (×), magainin II (●), chlorhexidine (◯).
For the peptides MUC7 12-mer-L, MUC7 12-mer-D, and MUC7 20-mer, time-kill kinetic studies against S. mutans were performed by the broth macrodilution method. S. mutans GS-5 (1×10^6 CFU/ml) and antibacterial agens (find concentrations of 12.5 μM for each peptide, and 2 μM for CHX; their MICs) were incubated in 25% BHI at 37° C. At the time of 0, 1, 2, 4, 8, and 24 h, samples were taken and viable counts determined as follows: The samples were serially diluted (10^−1 to 10^−4) in sterile 10 mM PBS (pH 7.2) and 50 μl aliquots were plated onto TSBY agar. The plates were incubated anaerobically at 37° C. for 48 h, followed by enumerating the CFU. Killing curves were constructed by plotting the log10 CFU per milliliter versus time over 24 h. All assays were done in duplicate on at least two occasions.

[1] = tested on: Ps. aeruginosa ATCC 17648; format: cell-based, Pseudomonas aeruginosa
Text: (§1) The bacteria used in this study included Streptococcus mutans ATCC10449, Streptococcus mutans AU 159, Streptococcus mutans GS-5, Streptococcus mutans GS-5 mutant (^gtf BCD), Streptococcus gordonii Challis, Porphyromonas gingivalis W50, Porphyromonas gingivalis 381, A. actinomycetemcomitans NCTC 9710, Pseudomonas aeruginosa ATCC 17648, and Escherichia coli HB101. One quarter strength (25%) of brain heart infusion broth (BHI, DIFCO Laboratories, Detroit, Mich.) was used for the growth of S. mutans, S. gordonii, A. actinomycetemcomitans, Ps. aeruginosa, and E. coli. For growth of P. gingivalis, tryptic soy broth-yeast extract medium (TSBY, DIFCO Laboratories, Detroit, Mich.) supplemented with cysteine hydrochloride (0.05%), menadione (0.02 μg/ml), hemin (5 μg/ml), and potassium nitrate (0.02%) was used. All bacteria were cultured at 37° C.; Ps. aeruginosa and E. coli were grown aerobically, and the other bacteria, anaerobically. […]
(§2) MICs of the peptides were determined by broth microdilution method as previously described (5). […] After incubation at 37° C. for 48 h, the absorbance was measured at 595 nm by using a microplate reader (Model 3550, Bio-Rad, Japan) to assess the cell growth. […] The minimal bactericidal concentration (MBC) was determined as follows. […]

S. gordonii Challis = format: cell-based, Streptococcus gordonii
Text: The bacteria used in this study included Streptococcus mutans ATCC10449, Streptococcus mutans AU 159, Streptococcus mutans GS-5, Streptococcus mutans GS-5 mutant (^gtf BCD), Streptococcus gordonii Challis, Porphyromonas gingivalis W50, Porphyromonas gingivalis 381, A. actinomycetemcomitans NCTC 9710, Pseudomonas aeruginosa ATCC 17648, and Escherichia coli HB101. One quarter strength (25%) of brain heart infusion broth (BHI, DIFCO Laboratories, Detroit, Mich.) was used for the growth of S. mutans, S. gordonii, A. actinomycetemcomitans, Ps. aeruginosa, and E. coli. For growth of P. gingivalis, tryptic soy broth-yeast extract medium (TSBY, DIFCO Laboratories, Detroit, Mich.) supplemented with cysteine hydrochloride (0.05%), menadione (0.02 μg/ml), hemin (5 μg/ml), and potassium nitrate (0.02%) was used. All bacteria were cultured at 37° C.; Ps. aeruginosa and E. coli were grown aerobically, and the other bacteria, anaerobically. To prepare bacterial cell suspension for antibacterial activity assays, each overnight culture was harvested by centrifuge (3783 g, 10 min), washed once with 10 mM sodium phosphate-buffered saline (PBS, pH 7.2), resuspended in PBS and adjusted to a concentration of 1×10^6 cells/mL.
MICs of the peptides were determined by broth microdilution method as previously described (5). Briefly, two-fold serial dilutions of each peptide were prepared with 25% BHI medium at a volume of 200 μl per well in 96-well flat-bottom microtiter plates (Costar, Cambridge, Mass.). The final concentration of the peptides ranged from 0.78 to 100 μM, and chlorhexidine (CHX), used as a positive control, from 20 to 0.16 μM (10 to 0.078 μg/mL). The microtiter plate was inoculated with bacterial cell suspension with final concentration of 5×10^6 CFU/mL for P. gingivalis and 5×10^5 CFU/mL for the other bacterial species. After incubation at 37° C. for 48 h, the absorbance was measured at 595 nm by using a microplate reader (Model 3550, Bio-Rad, Japan) to assess the cell growth. […] The MIC value represents the median of at least three independent experiments. The minimal bactericidal concentration (MBC) was determined as follows. Aliquot (100 μl) of cell suspension was taken from two wells above MIC, centrifuged, and washed three times with PBS. Then each cell suspension was plated on TSBY agar plate, and bacterial cells were enumerated after incubation at 37° C. for 48 h. The MBC was defined as the lowest concentration of the peptide at which more than 99.9% of cells were killed compared to non-treated control.

P. gingivalis = format: cell-based, Porphyromonas gingivalis; settings: median of two strains (W 50, 381)
Text: as §1, §2

SMILES	reduction of the viable counts of S. mutans (S. mutans GS-5)	MIC [1]	MBC (S. gordonii Challis)	MIC (S. gordonii Challis)	MIC (P. gingivalis)
CC(C)C[C@@H](NC(=O)[C@@H](CS)NC(=O)[C@@H](CCCCN)NC(=O)[C@@H](Cc1ccc(O)cc1)NC(=O)[C@@H](CO)NC(=O)[C@@H](CCCCN)NC(=O)[C@H](N)CCCNC(=N)N)C(=O)N[C@H](Cc1c[nH]cn1)C(=O)N[C@H](CCCCN)C(=O)N[C@H](CCCNC(=N)N)C(=O)N[C@H](CS)C(=O)N[C@H](CCCNC(=N)N)C(=O)O [MUC7 12-mer-D] (H-[dR][dK][dS][dY][dK][dC][dL][dH][dK][dR][dC][dR]-OH; N-terminus and C-terminus assumed)	2 log10	158.0 µg/mL (≈ 100 µM)	158.0 µg/mL (≈ 100 µM)	79.0 µg/mL (≈ 50.1 µM)	79.0 µg/mL (≈ 50.1 µM)
CC(C)C[C@H](NC(=O)[C@H](CS)NC(=O)[C@H](CCCCN)NC(=O)[C@H](Cc1ccc(O)cc1)NC(=O)[C@H](CO)NC(=O)[C@H](CCCCN)NC(=O)[C@@H](N)CCCNC(=N)N)C(=O)N[C@@H](Cc1c[nH]cn1)C(=O)N[C@@H](CCCCN)C(=O)N[C@@H](CCCNC(=N)N)C(=O)N[C@@H](CS)C(=O)N[C@@H](CCCNC(=N)N)C(=O)O [MUC7 12-mer-L] (H-RKSYKCLHKRCR-OH; N-terminus and C-terminus assumed)	2 log10	–	158.0 µg/mL (≈ 100 µM)	79.0 µg/mL (≈ 50.1 µM)	–
